Data: PubChem BioAssay AID1347423 (Functional Genomics Laboratory (NCATS/FGL), 2020)
The campaign covered roughly 52,000 sequences. About 210 (0.4%) were called active.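 Rule for the calls: active = gene whose silencing raises cell survival under the drug, median off-target-corrected z-score across its silencing RNAs 2 or more; inactive = the rest.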 Some of the results follow.

Experiment: Resistance to Poly (ADP-Ribose) Polymerase inhibitor: Gene Identification via Genome-wide siRNA Screen
Conditions: mouse BRCA2 R2336H ES cells, olaparib, CellTiter-Glo viability; hits give high values
How it was run: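 Genome-wide siRNA screen (3 siRNAs/gene, 20 nM) in mouse ES cells carrying hypomorphic BRCA2 R2336H; olaparib 500 nM added 48 h post-transfection, CellTiter-Glo viability 72 h later. Normalized to plate-median negative control; MAD z-scores, gene median, seed-adjusted.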
In the case of GCCACAUAGAUCGCAUGGUTT against Lox, the z-score is reported as inactive: -1.58.
In the case of “GGCACAAGUAAAGGUAGUCTT against 4930430A15Rik”, the z-score is reported as inactive: 0.265.
For GGAACAAUAUUGAUGAUGUTT against Pten, the z-score was inactive: 0.613.
In the case of GGGUUCUCCAAUGCUUACATT against Mrps23, the z-score is reported as inactive: 0.213.
In the case of CCCAGGUAGAUCCUAUCCUTT against Mllt7, the z-score is reported as inactive: 0.8.
In the case of “CCCGUUGUAUACAAAUACCTT against D7Ertd743e”, the z-score is reported as inactive: 0.084.
For “GCCUGUAAGACUGUACUGGTT against 1110021N19Rik”, the z-score was inactive: -0.158.
In the case of GGACCACCAUUGUGAUCCATT against Kcnk2, the z-score is reported as inactive: 0.409.
With GCAUAUUUCUAAGCUGCAUTT against Qdpr the z-score was inactive: -1.25.
With “GGUCAACCUUCUGAAGCAGTT against C230069K22Rik” the z-score was inactive: -1.31.
In the case of CCUAUCAACCUAAACUCCATT against Car8, the z-score is reported as inactive: -0.524.
In the case of “GGAUGCUUUGAAAUAAAACTT against 1110032A04Rik”, the z-score is reported as inactive: 2.58.
In the case of GCACGAGGAUGUGAUAUUCTT against Txndc2, the z-score is reported as inactive: -0.96.
For GCCUUCAUCAAAAAACACUTT against Txndc2, the z-score was inactive: 1.36.
With GGUCACUUGGAAUUUGUAATT against Gata6 the z-score was inactive: 0.566.
For CCAGUAACCAGUGCAAUCATT against Tnp2, the z-score was inactive: -2.45.
With GGACAUGUUUGUGUUAAAGTT against Catna1 the z-score was inactive: 0.34.
For GGAAAUCAGUGUCUUUUACTT against Sumf1, the z-score was inactive: 1.38.
For GGGCAUCAGCUAUUAAAGATT against Tpmt, the z-score was inactive: -0.405.
In the case of GUUUAAAACCUAUGGCAUCTT against Rps21, the z-score is reported as inactive: -3.4.
In the case of “GGCCGUCAGCUUUACACAGTT against 4921521N14Rik”, the z-score is reported as inactive: -0.287.
For GGAAGAACUCUCAGAAAAATT against Txk, the z-score was inactive: -0.45.
In the case of GGAUAGUAACGGAAACUUGTT against Usp25, the z-score is reported as inactive: 2.49.
For GGAACAAAUAAAGGUAAACTT against Ncoa6ip, the z-score was inactive: 2.61.
For CCGUAAUCGCUGCUUCAUATT against Cideb, the z-score was inactive: -0.32.
With GCCUAGAUACAGCUCCUUGTT against Clybl the z-score was inactive: -0.403.
For “CGAACUUUGUCAUGUCCAUTT against 9930111J21Rik”, the z-score was inactive: 1.68.
With “CGCCUUUUGGAAUAUUUCATT against 2900024O10Rik” the z-score was inactive: -0.704.
In the case of GGAAGGGUCAGAAAAAUGUTT against Slc1a2, the z-score is reported as inactive: 0.779.
For “GGUGUCUUUGCUCUUAAUUTT against 5730470L24Rik”, the z-score was inactive: 0.926.
For “GGUAAAGAUCCAGUGCCGCTT against 1810062O14Rik”, the z-score was inactive: 0.886.
With “CCAAAUGCUUAUCUCUACATT against C330023D02Rik” the z-score was inactive: -0.776.
In the case of GGUGGUGGAACAAGAUGAGTT against Psen1, the z-score is reported as inactive: 1.58.
For GGAGUUUGUGUUUUAUCUATT against Ppp1r3b, the z-score was inactive: 1.12.
With “GGCAGAGCUAGAUCAAAUUTT against 1810015C04Rik” the z-score was inactive: -0.687.
In the case of GGUAUUUUUUUCUCAGCCATT against Dhdh, the z-score is reported as inactive: -0.108.
In the case of GCACCUAACUCUAGUUUUGTT against Golga7, the z-score is reported as inactive: 0.953.
In the case of GGGAACAUGUAAACUAACGTT against Klf3, the z-score is reported as inactive: 0.667.
In the case of GGUUCUUUUUGGUGUUAUGTT against Psme3, the z-score is reported as inactive: 1.04.
For GCUACUAUCUGGAGUCGUATT against Pycard, the z-score was inactive: -0.911.
With GGCUUAAGUGUGCAGCUACTT against B3gnt4 the z-score was inactive: 0.865.
For GGAGAACACCAAAAAGGGCTT against Uncx4.1, the z-score was inactive: -0.808.
For GGUGGACAUGAGCAAAGUATT against Srrm1, the z-score was inactive: 0.786.
With GGUCCUUUCCCAUAACCUGTT against Swap70 the z-score was inactive: 0.826.
For GGUGAAAUAUGUUAUCUGGTT against Copa, the z-score was inactive: -3.31.
With CAAACCUUGUUGCCAUGACTT against Olfr406 the z-score was inactive: 1.13.
With GCGGAAGUCGGAUUUUAUCTT against Kif1c the z-score was inactive: -0.771.
In the case of CCUAUGUUUUAGCAAGCAGTT against Acyp2, the z-score is reported as inactive: 0.0183.
For GGUGUACCUCUGAAAAAAATT against Zbp1, the z-score was inactive: -0.735.
With GGGAAACUUUGCCACCUUATT against Tm4sf7 the z-score was inactive: -0.305.
For GAGACUAAUAUAGUGAAUGTT against Foxj1, the z-score was inactive: 1.1.
With GGAGAAGUCCAAAUUCGAGTT against Raly the z-score was inactive: -0.265.
